Survivor count and T/C data for 22 compounds are collected here from PubChem BioAssay AID248 (DTP/NCI, 2004).

Structures are written as SMILES. The list does not hold the whole screen: it is rich in T/C values a quarter to a half above the control, in often repeated tests (any T/C) and in doses without a T/C. Further doses and runs are listed elsewhere. T/C: endpoint of the treated group in % of that of the vehicle group. Some doses have a count of surviving animals in place of a T/C: the source files T/C as zero there, which appears to mark a toxic dose or a test without result, not a measured value. Some doses without a T/C left all or most animals alive at the check, yet need not have been tolerated: survival well below the control is almost never listed, so the zero probably covers shortened survival too. Survivors were counted at the toxicity check, usually on the fifth day, unless a day is given; later deaths do not show. Schedules are NCI's codes, read here as Q, the interval in days (D) or hours (H), X, the number of doses. Some entries hold several experiments; the values are given in rising order. Some schedule codes hold Z or #, which are not explained here. For survival time, this PubChem deposit counts one and a half times the control or more as active, and values a quarter to a half above the control carry no call in these data; other NCI protocols may use other cut-offs. Some T/C values are followed by the survivors on the day toxicity was checked, most often the fifth; without a count, all were alive then.

In the assay the test system is L1210 leukemia ip in BDF1 mice, survival T/C. The assay can be described thus: NCI In Vivo Anticancer Drug Screen. Data for tumor model L1210 Leukemia (intraperitoneal) in B6D2F1 (BDF1) mice. The following applies: T/C endpoint: mean survival time, higher T/C = longer survival.
Where [1] appears, read: dose: 200.0 mg/kg/injection, schedule: Q01DX001 (ip), vehicle: Klucel (hydroxypropylcellulose) (HPC).
[2] abbreviates: dose: 600.0 mg/kg/injection, schedule: Q01DX015 (ip), vehicle: water.
Where [3] appears, read: dose: 400.0 mg/kg/injection, schedule: Q01DX009 (ip), vehicle: Klucel (hydroxypropylcellulose) (HPC).
Where [4] appears, read: dose: 40.0 mg/kg/injection, schedule: Q01DX001 (ip), vehicle: saline.
The mark [5] stands for this setting: dose: 100.0 mg/kg/injection, schedule: Q04DX002 (ip), vehicle: saline with Tween-80.

Regarding `CC(=[N-])CC(C)=O.CC(=[N-])CC(C)=O.[Ni+2]`, the survivor count (dose: 25.0 mg/kg/injection, schedule: Q04DX003 (ip), vehicle: Klucel (hydroxypropylcellulose) (HPC)) was 3 of 6; the survivor count (dose: 50.0 mg/kg/injection, schedule: Q01DX001 (ip), vehicle: Klucel (hydroxypropylcellulose) (HPC)) was 3 of 6; the survivor count (dose: 100.0 mg/kg/injection, schedule: Q01DX001 (ip), vehicle: Klucel (hydroxypropylcellulose) (HPC)) is listed as 0 of 6; the survivor count under setting [1] is given as 0 of 6; the survivor count (dose: 400.0 mg/kg/injection, schedule: Q01DX001 (ip), vehicle: Klucel (hydroxypropylcellulose) (HPC)) is recorded as 0 of 6.
As to `O=C(NO)c1ccc([N+](=O)[O-])cc1`, the T/C under setting [2] was 137 % of control [5 of 6 alive]. For the same compound, the survivor count is 2 of 6 and 3 of 6 under setting [2]; 0 of 6 (dose: 800.0 mg/kg/injection, schedule: Q01DX001 (ip), vehicle: water); 0 of 8 (dose: 800.0 mg/kg/injection, schedule: Q01DX009 (ip), vehicle: Klucel (hydroxypropylcellulose) (HPC)); 0 of 6 (dose: 800.0 mg/kg/injection, schedule: Q01DX015 (ip), vehicle: water).
Consider `CN(CCC#N)c1ccc(-c2cc(C(=O)O)c3cc4ccccc4cc3n2)cc1`, for which, where the note is “dose: 100.0 mg/kg/injection, schedule: Q04DX002 (ip), vehicle: Klucel (hydroxypropylcellulose) (HPC)”, the survivor count is given as 3 of 3.
Regarding `N/C(=N\O)c1cn(C2OC(CO)C(O)C2O)c2nc(Cl)nc(N)c12` (stereo not given), the survivor count (dose: 100.0 mg/kg/injection, schedule: Q01DX005 (ip), vehicle: saline) is 6 of 6. Further, the T/C is 125 % of control under setting [1] and 127 % of control (dose: 200.0 mg/kg/injection, schedule: Q01DX005 (ip), vehicle: saline).
Take `CNC(=N)c1ccc(NC(=N)c2ccc(NC(=N)c3ccc(NC(=N)c4ccc(C(=N)NC)cc4)cc3)cc2)cc1`: the T/C is, setting by setting: (dose: 8.0 mg/kg/injection, schedule: Q01DX015 (ip), vehicle: water) 128 % of control; (dose: 11.0 mg/kg/injection, schedule: Q01DX Z (ip), vehicle: water) 147 % of control; (dose: 15.0 mg/kg/injection, schedule: Q01DX015 (sc), vehicle: water) 139 % of control. Further, the survivor count (dose: 33.0 mg/kg/injection, schedule: Q01DX015 (ip), vehicle: water) was 0 of 6; the survivor count (dose: 37.0 mg/kg/injection, schedule: Q01DX015 (sc), vehicle: water) is listed as 1 of 10; the survivor count (dose: 60.0 mg/kg/injection, schedule: Q01DX001 (ip), vehicle: water) is reported as 0 of 6; the survivor count (dose: 66.0 mg/kg/injection, schedule: Q01DX015 (ip), vehicle: water) is on record as 0 of 6.
Regarding `OCC(O)C(O)/C=N/Nc1cc(Cl)ccc1Cl` (stereo not given), for the setting “dose: 400.0 mg/kg/injection, schedule: Q01DX001 (ip), vehicle: carboxymethylcellulose (CMC)”, the survivor count is given as 1 of 4.
As for `CC(C)OCCCN=C(N)N`, the survivor count (dose: 100.0 mg/kg/injection, schedule: Q01DX009 (ip), vehicle: saline) is reported as 1 of 6; the survivor count (dose: 100.0 mg/kg/injection, schedule: Q04DX003 (ip), vehicle: saline) is 5 of 6; the survivor count (dose: 200.0 mg/kg/injection, schedule: Q01DX009 (ip), vehicle: saline) is recorded as 0 of 6; the survivor count (dose: 200.0 mg/kg/injection, schedule: Q04DX003 (ip), vehicle: saline) was 0 of 6; the survivor count (dose: 400.0 mg/kg/injection, schedule: Q04DX003 (ip), vehicle: saline) is given as 0 of 6.
Turning to `O=C(NCCCN1CC1)C(=O)Nc1ccccc1`, the survivor count reads like this: (dose: 50.0 mg/kg/injection, schedule: Q04DX003 (ip), vehicle: Klucel (hydroxypropylcellulose) (HPC)) 6 of 6; (dose: 100.0 mg/kg/injection, schedule: Q04DX003 (ip), vehicle: Klucel (hydroxypropylcellulose) (HPC)) 1 of 6; (dose: 200.0 mg/kg/injection, schedule: Q04DX003 (ip), vehicle: Klucel (hydroxypropylcellulose) (HPC)) 0 of 6; (dose: 400.0 mg/kg/injection, schedule: Q04DX003 (ip), vehicle: Klucel (hydroxypropylcellulose) (HPC)) 0 of 6.
As to `CC1=CC(=O)C=CC1(C)C`, the survivor count under setting [3] was 1 of 6.
As to `CCOC(=O)CCN(Cc1ccco1)C(=S)Nc1ccccc1`, where the note is “dose: 100.0 mg/kg/injection, schedule: Q01DX Z (ip), vehicle: methylcellulose (MC)”, the survivor count is recorded as 6 of 6.
With `C=C1C(=O)OC2C1C(OC(=O)/C(C)=C/COC(C)=O)CC1(CO1)C1C(O)C=C(C)C21` (stereo not given), the survivor count (dose: 100.0 mg/kg/injection, schedule: Q01DX009 (ip), vehicle: alcohol) was 1 of 6; the survivor count (dose: 200.0 mg/kg/injection, schedule: Q01DX009 (ip), vehicle: alcohol) is 0 of 6; the survivor count (dose: 400.0 mg/kg/injection, schedule: Q01DX009 (ip), vehicle: alcohol) is given as 0 of 6.
As to `CCCCCCCC/C=C/CCCCCCCCC1=NCCN1CCO`, the survivor count by setting is: under setting [4], 2 of 6; (dose: 75.0 mg/kg/injection, schedule: Q01DX001 (ip), vehicle: acetone) 0 of 6; (dose: 150.0 mg/kg/injection, schedule: Q01DX001 (ip), vehicle: acetone) 0 of 6; (dose: 300.0 mg/kg/injection, schedule: Q01DX001 (ip), vehicle: acetone) 0 of 6.
As to `CC/C=C(\C)CC(C)O` (stereo not given), the survivor count under setting [5] is on record as 3 of 3.
`Cc1cccc(C)c1NC(=O)NS(=O)(=O)c1ccccc1`: where the note is “dose: 400.0 mg/kg/injection, schedule: Q04DX003 (ip), vehicle: acetone”, the survivor count is listed as 2 of 6.
`CCN(CC)C1=C(Cl)C(=O)C(=O)c2cccnc21`: the survivor count runs as follows: (dose: 75.0 mg/kg/injection, schedule: Q04DX003 (ip), vehicle: saline) 2 of 6; (dose: 150.0 mg/kg/injection, schedule: Q01DX001 (ip), vehicle: saline) 0 of 6; (dose: 300.0 mg/kg/injection, schedule: Q01DX001 (ip), vehicle: saline) 0 of 6.
As to `Nc1nc(N)c(N)c(SCC(=O)C(=O)O)n1`, for the setting “dose: 400.0 mg/kg/injection, schedule: Q01DX001 (ip), vehicle: saline with Tween-80”, the survivor count was 3 of 6.
With `O=C1c2ccccc2C(=O)N1c1ccc(CBr)cc1`, the survivor count by setting is: (dose: 200.0 mg/kg/injection, schedule: Q01DX009 (ip), vehicle: Klucel (hydroxypropylcellulose) (HPC)) 1 of 3; under setting [3], 2 of 3 and 4 of 6.
Consider `CNc1cc(N2CCCC2)ccn1`, for which the survivor count reads like this: (dose: 20.0 mg/kg/injection, schedule: Q01DX001 (ip), vehicle: saline) 1 of 6; under setting [4], 0 of 6; (dose: 80.0 mg/kg/injection, schedule: Q01DX001 (ip), vehicle: saline) 0 of 6; (dose: 100.0 mg/kg/injection, schedule: Q01DX001 (ip), vehicle: saline) 0 of 6; (dose: 200.0 mg/kg/injection, schedule: Q01DX001 (ip), vehicle: saline) 0 of 6; (dose: 400.0 mg/kg/injection, schedule: Q01DX001 (ip), vehicle: saline) 0 of 6.
In the case of `CC(C)(O)C(O)c1ccccc1` (stereo not given), the survivor count (dose: 400.0 mg/kg/injection, schedule: Q01DX009 (ip), vehicle: saline) was 2 of 6.
Turning to `CC(C)C(CN=C(N)N)c1cccc2ccccc12` (stereo not given), under setting [5], the survivor count was 0 of 3.
As to `O=[N+]([O-])c1ccc([S][Pb]([c]2ccccc2)([c]2ccccc2)[c]2ccccc2)cc1`, for the setting “dose: 400.0 mg/kg/injection, schedule: Q04DX002 (ip), vehicle: Klucel (hydroxypropylcellulose) (HPC)”, the survivor count is listed as 1 of 3.
On to `CCCCCCCCCCCCCCCC(=O)Nc1cccc2c[n+](CC(=O)c3ccc(NC(=O)CCC(=O)OC)cc3)ccc12`, for which the survivor count is listed as 6 of 6 (dose: 100.0 mg/kg/injection, schedule: Q04DX003 (ip), vehicle: saline with Tween-80); 6 of 6 (dose: 200.0 mg/kg/injection, schedule: Q01DX009 (ip), vehicle: saline with Tween-80); 6 of 6 (dose: 200.0 mg/kg/injection, schedule: Q04DX003 (ip), vehicle: saline with Tween-80).
